Assay [1] deals with MCF7 cells. As to the kind of experiment: Cell Titer Blue viability, single drug, MCF7 cells. The class given is cell-based. As to conditions: Homo sapiens, 48 hour incubation. The protocol: Viable cells reduce resazurin to resorufin (pink). Cell growth was evaluated as described above. […] The cell lines were split and cells counted. […] The next day, the cells were observed under phase contrast microscopy to ensure they had adhered to the plates and the supernatant medium removed by aspiration.

The subject of assay [2] is K562 cells. As to the kind of experiment: Cell Titer Blue viability, single drug, K562 cells. As to conditions: Homo sapiens, K562, 48 h. On the procedure:
(§1) Viable cells reduce resazurin to resorufin (pink).
(§2) Cell growth was evaluated as described above.
K562 was established from pleural effusion of person with chronic myelogenous leukaemia in terminal blast crisis. […] The line used in these experiments was the K562B. […] K562B has been compared to K562A and K562 C, with respect to growth kinetics, cell surface protein markers, surface antigens, cytogenetics and hemoglobin production.
(§3) The cell lines were counted. […] Fresh medium containing either two-fold increasing concentrations of Mycograb® (1.5-200 μg/ml), or medium alone was then added to the wells. The plate was returned to the incubator for 48 hours following which the cell titre blue assay was carried out, or viable counts were determined using a haemocytometer.
(§4) The cell lines were counted. […] The plates were returned to the incubator for 48 hours following which cell titre blue assays were carried out.
A general note: Alamar Blue is a resazurin reagent that responds to reducing activity.

Assay [3] deals with KU-812 cells. As to the kind of experiment: Cell Titer Blue viability, single drug, KU-812 cells. As to conditions: Homo sapiens, KU812, 48 h. On the procedure: as §1, §2, §3, §4

Among the data in patent US20080038267A1, “Treatment Of Cancer” (NEUTEC PHARMA LIMITED, priority 2004, published 2008) are IC50 values, retold here.

Converted amounts (≈) assume the structure as drawn.

Take `Cc1ccc(NC(=O)c2ccc(CN3CCN(C)CC3)cc2)cc1Nc1nccc(-c2cccnc2)n1` [Imatinib]: the half-maximal inhibitory concentration (IC50) stood at 37.5 µg/mL (≈ 76 µM) in assay [1], 16 µg/mL (≈ 32.4 µM) in assay [2] and 0.12 µg/mL (≈ 0.243 µM) in assay [3].

The term IC50 denotes the point on the concentration scale where inhibition reaches its midpoint. Low readings indicate inhibition by little substance, high ones a need for much substance.
